Consider 38 compounds from PubChem BioAssay AID504456 (NMMLSC, 2011).

The structures appear in SMILES notation. Some of the results follow. Further columns of the screen follow, without active or inactive calls.

A short description of the experiment: wild-type yeast growth inhibition sparing TORC1 bypass cells, mechanism study for yeast TOR pathway GFP screen, BY4741 wild type, TORC1 bypass strain (AID 504456). Particulars: S. cerevisiae BY4741 spot growth rating, 48-72 h, at 30 µM.
Consider `Cc1ccc(S(=O)(=O)c2ccc([N+](=O)[O-])cn2)cc1`, for which the growth rating (0-3) was found to be 3.
The compound `COC(=O)CCS(=O)(=O)c1nc(-c2ccccc2)cc(C(F)(F)F)n1` showed a growth rating (0-3) of 3.
In turn, `O=C1ON=C(c2ccccc2)/C1=C\c1ccco1` registered a growth rating (0-3) of 3.
`O=C(Oc1ccnc2cc(Cl)ccc12)N1CCCCCC1` had a growth rating (0-3) of 3.
In turn, `Nc1nc(NCCc2ccccc2)nc(Nc2cccc(F)c2)c1[N+](=O)[O-]` showed a growth rating (0-3) of 3.
In turn, `Cc1c(C(=O)Nc2nc(-c3ccccn3)cs2)oc2ccccc12` returned a growth rating (0-3) of 3.
`CC1=NN(c2ccccc2)C(=O)C1C(c1ccccc1[N+](=O)[O-])C(C#N)C#N` (stereo not drawn) returned a growth rating (0-3) of 3.
Consider `Nc1nc(NCc2ccccc2)nc(Nc2cccc(F)c2)c1[N+](=O)[O-]`, for which the growth rating (0-3) turned out to be 3.
For `Nc1nc(Nc2cccc(Cl)c2)nc(Nc2cccc(F)c2)c1[N+](=O)[O-]`, the growth rating (0-3) came to 3.
With `Cc1ccc(C(c2cc(Cl)c3cccnc3c2O)N2CCN(C)CC2)cc1` (stereo not drawn), the growth rating (0-3) is 3.
Then `COc1ccc(C(=O)NNC(=S)NC(=O)/C=C/c2cccs2)cc1`, with 3.
Turning to `O=C(CCc1ccccc1)NNC(=S)NC(=O)c1ccccc1`, the growth rating (0-3) was 3.
As for `CN1CCN(C(c2ccc(C(F)(F)F)cc2)c2ccc3cccnc3c2O)CC1` (stereo not drawn), the growth rating (0-3) amounted to 3.
`CNc1nc(N)cc(Nc2ccccc2F)n1`: the growth rating (0-3) is 3.
As to `O=C(OCn1ncc(Br)c(Br)c1=O)c1ccc(F)cc1`, the growth rating (0-3) is 3.
`COc1ccccc1-c1cc(Nc2cc(C)[nH]n2)nc(NCc2ccccc2)n1`: the growth rating (0-3) is 3.
Regarding `O=C(NC(=S)NNC(=O)c1cnccn1)c1ccc(F)cc1`, the growth rating (0-3) came out at 3.
The compound `Nc1nc(NCc2ccco2)nc(Nc2cccc(F)c2)c1[N+](=O)[O-]` came in with a growth rating (0-3) of 3.
The compound `Nc1nc(Nc2ccccc2F)nc(Nc2cccc(F)c2)c1[N+](=O)[O-]` came in with a growth rating (0-3) of 3.
`c1ccc(-c2cccc(-c3ccccn3)n2)nc1`: the growth rating (0-3) was found to be 3.
As for `O=c1/c(=C/c2cccc3ccccc23)sc2ncnn12`, the figure is 3; as for `CCc1ccc(OCC(=O)NNC(=S)NC(=O)C2CC2)c(Br)c1`, 3.
The compound `Nc1cc(Oc2cccc(Cl)c2)nc(NCc2ccccc2)n1` yielded a growth rating (0-3) of 0.
On to `O=C(c1ccc(C(=O)N2CCCc3ccccc32)s1)N1CCCc2ccccc21`, for which the growth rating (0-3) is 2.
`N/C(Cc1ccc(Cl)cc1)=N\OC(=O)c1cccc2ccccc12` yielded a growth rating (0-3) of 3.
As for `O=C(Oc1c(Cl)cc(Cl)c2cccnc12)c1ccco1`, the growth rating (0-3) is 0.
As for `COCCNc1nc(N)c([N+](=O)[O-])c(Nc2cccc(F)c2)n1`, the figure is 3; as for `O=C1ON=C(c2ccccc2)/C1=C/c1ccco1`, 3; as for `Cc1ccc(C2=NOC(=O)/C2=C\c2ccc(C)o2)cc1`, 3.
`COc1cccc(Nc2nc(N)c([N+](=O)[O-])c(Nc3cccc(F)c3)n2)c1` gave a growth rating (0-3) of 3.
For `Cc1nn2c(-c3ccncc3)nnc2c2ccccc12`, the growth rating (0-3) worked out at 3.
`CNc1nc(N)c([N+](=O)[O-])c(NCC2CCCO2)n1` (stereo not drawn) gave a growth rating (0-3) of 3.
For `O=[N+]([O-])c1ccc(S(=O)(=O)c2cccc(C(F)(F)F)c2)nc1`, the growth rating (0-3) came to 3.
As for `CNc1nc(N)c([N+](=O)[O-])c(Nc2ccc(OC)cc2)n1`, the figure is 3; as for `Cc1ccc(NC(=O)c2cc(N3C(=O)C=CC3=O)ccc2N2CCOCC2)cc1Cl`, 3.
`CNc1nc(N)c([N+](=O)[O-])c(Nc2cccc(F)c2)n1`: the growth rating (0-3) came out at 3.
The compound `Nc1nc(Nc2ccccc2)nc(Nc2cccc(F)c2)c1[N+](=O)[O-]` returned a growth rating (0-3) of 3.
With `Oc1c(I)cc(I)c2cccnc12`, the growth rating (0-3) is 3.
